According to PubChem BioAssay AID1347426 (Functional Genomics Laboratory (NCATS/FGL), 2020):
Hit rate of the full screen: of about 31,000 sequences, about 1,400 (4.5%) were called active.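 Rule for the calls: active = median seed-adjusted z-score above 1 or below -1; inactive = the rest.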 This is one part of the list.

assay: Novel Modifiers of Survival Motor Neuron (SMN) Protein: Gene Identification via Genome-wide siRNA Screen; conditions: HEK293T SMN2-luciferase reporter, siRNA knockdown, 72 h; actives lie on both sides;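 note: luminescence tracks full-length SMN protein made from the SMN2 reporter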
In short: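 Genome-wide siRNA screen (10418 genes, 3 siRNAs each, 1 pmol per well) by reverse transfection in HEK293T cells stably carrying an SMN2-luciferase reporter; luminescence after 72 hours, normalized to negative-control siRNA, log10-transformed, MAD-scored.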

Sequence	median seed-adjusted z-score
GGAACUACGUCCACACCCATT against GHRHR	inactive: 0
AGAGUUGCAUAGCCCAGUATT against RNASE10	inactive: -0.109
GUUCUUUGCGGAAAAUGAATT against THBS2	inactive: -0.721
CUGGAAGUGUUAUUCCUAATT against FOXD4L1	inactive: 0.271
GGAACAAGUUUUCAGGGUUTT against LCN10	inactive: 0
GGUGGUUCCUAUUCACCAATT against KCNJ8	inactive: 0.329
AGAUAUAGCUUCACAAUCUTT against BCL2L13	inactive: 0.311
CCACUGACAUUGAUCUCAATT against CIC	inactive: 0.756
GAACAAGACAGUUCGCAAATT against GPR161	inactive: -0.138
GAACUAGUGAUAUCCGGAATT against EXOG	inactive: 0.746
GCUCUUGGAUUAAAAGGUATT against STAR	inactive: 0.478
ACAAAACAUUUCAGACUCATT against ZNF716	inactive: 0
GAACCUCUGCUCUUCAAGATT against LRRC4B	inactive: 0.288
GAAGAAGCCGUGAACUUCATT against ILKAP	inactive: 0
GAAACGGGAUUUUUCGAUUTT against OCA2	inactive: 0.457
GGUCUACACUGUGCAGGAATT against MAN2B2	inactive: 0.0555
GGUUGAUGCAGACAACAAATT against LGTN	inactive: 0.491
GGGUAGGUGAUAUCCAUAUTT against ZBTB5	inactive: 0.314
GAACGAGACAAGAAUCAGATT against EIF4E2	inactive: 0.0495
GCCGAAUCCUGAAGAGACATT against QTRTD1	inactive: 0.377
CCACAUCAACAGUGCCUUUTT against ACOT11	inactive: 0.636
GAUCAGGACUUUAUGUUCATT against ZNF225	inactive: 0.0761

Sequence	median seed-adjusted z-score
CAGCAACCAAUGAUAUAUATT against POLR2K	active: -3.72
AGUACGGACAGAUCUCUGATT against CIRBP	inactive: -0.701
GGAUGCUCUUUGGAACAAATT against SLC2A12	inactive: -0.373
CAUCAAUGACUCACCCUUUTT against RTN4R	inactive: -0.536
CACUUGAAGAUCAUCCAAATT against MBTPS1	inactive: -0.551
CGUGUGCGAUCACCCGAAATT against KLK11	inactive: 0.0411
UCAUCGGCGUGAUCGUGUATT against CACNG8	inactive: 0.214
GAUUCACCAAUGUCAAACATT against GLCE	inactive: 0.752
CGGAAUCAUCUACACCUAUTT against CNR2	inactive: 0.33
CUAGAGUCGCUGUUGAAGATT against DRAP1	active: 1.08
CCUCUCAUCUAGUAGAAGATT against MYB	inactive: 0.307
AGUGCAUCGCAUCUGCCUATT against RAB36	inactive: -0.348
GAACAGUGCUUGAGGAUAUTT against ANGPTL1	inactive: -0.556
GGAUCAACCAGACGGAAAATT against CELSR1	inactive: -0.466
GGAGAGUUAAGAUCAAUGUTT against KCNB2	active: 1.22
CCUGCACUAAAUUACUCAATT against COX5B	inactive: 0.45
GGACGGUCGUGAUGGAUAATT against SAFB2	inactive: 0.0394
GGAUCACUGCAAAACUCAATT against PFKP	inactive: -0.352
GGUUAGAGUUCACACUUGATT against ICMT	inactive: -0.0602
GCUUCCCUGCUAUUGCUUUTT against GPR176	inactive: 0.0782
CACUUAUACUAACGGUUAATT against DSG3	inactive: 0
GGUUGACAAAUGCAGGAUATT against RIOK2	inactive: -0.16

Sequence	median seed-adjusted z-score
CGUUAUCUUCAGUACUGCATT against C3orf64	inactive: 0.0771
GCUAUGGACUGGUCAUUUATT against ATP8B3	inactive: 0
GCAAGUUUGGAAACGUGUATT against AURKB	inactive: 0.0901
GUGAUGUACUCAUUCAAGATT against USP20	inactive: -0.369
AAAGCAAAGUUCCAAGAGATT against ANXA13	inactive: -0.467
CCACAUCUAGCUCAACAUATT against ZNF43	inactive: 0.29
AGACCGUGAUUCCCAGGAATT against CNDP2	inactive: 0.43
GCAACUCAGUUGGUGGAUUTT against RAB39	inactive: -0.408
CCAUGCACUCAAUAAAGAATT against KLK6	inactive: 0.176
CGCAAGAGCAUGAUCAUCATT against KCNJ11	inactive: -0.567
AGAUCCACCUGAUGCAGAATT against SYT2	inactive: 0.243
CACCCUAGCUGGAACUCUATT against CTRL	inactive: 0.0758
GCGUGGAUAUUUACCUGGATT against IFT140	inactive: -0.0152
GGAGACAAGUGUAAUCUUATT against OSBP	inactive: 0.256
CCUGGACCCUGAACUCACATT against LILRA4	inactive: 0.109
GAAUUACGCAGAAAAUGAUTT against FARS2	inactive: 0.587
GGAUGUACAUGAUGCCCUUTT against MTRR	inactive: -0.381
GAGCAUCAAGUCAUCCAUATT against PPFIA3	inactive: -0.0669
CCUGGGUCGCAACAUCUUUTT against SYTL1	inactive: 0.0856
GCGGAGGAGUUCACCUAUATT against RBP3	inactive: 0
CCAGAGUCACUGCUCAUUATT against BTBD11	inactive: -0.00434
GGUUAAAGCUCAAAAACGATT against ZNF75A	inactive: 0.303

Sequence	median seed-adjusted z-score
GGACUUCAGUGAGCUAGAATT against PYGL	inactive: 0.166
CUCAAGACCUUUAUAGCUATT against CLCN2	inactive: -0.0786
GGAUGUCUAUGGAUACCAATT against GANC	inactive: 0.799
GCUUUCUAUCGAUCCUCAATT against ZNF681	inactive: 0.271
GGACUACUAUGCCACUGCUTT against SSTR4	inactive: -0.00217
CGCUCCUUGUCAAAAGAAATT against KCNS3	inactive: 0.103
CAAAUGAACUGGACAUUAATT against ZNF786	inactive: -0.518
GGACAUUGAUUAUAUUGGATT against GALC	inactive: 0
ACUUGUACCUGUCCCAUAATT against CHAD	inactive: 0
GCCUAUAUCUCACGCUCUATT against ZFP62	inactive: -0.255
GGAUUUGCAGGAGUAUAUUTT against SLC35A1	inactive: 0.00794
CAGCAUUGCUCUUAAGGUUTT against USP6	inactive: -0.285
GGAUCUAUCUCAUCAAACATT against NDUFC1	inactive: 0
CCUGAAACCUCAGAACUUATT against PFTK2	active: -1.16
GGAGGAAGAUGGACCGGAUTT against NPPB	inactive: -0.973
GGCAUGACCUCAUCACAGUTT against RNASE7	active: 1.07
GACAAGUGGUUAACUGGUUTT against AADAT	inactive: 0.0891
AAGAGAGAUUUGAUAGUUATT against TRIM21	inactive: 0.524
UGUCAGAUCUGUUUCAAUUTT against RNF152	inactive: -0.745
CGAGCAAUAAGUCCAUGGATT against ACOT7	inactive: 0.665
CACCGAGUCGGAAUACUAUTT against TGFB3	inactive: -0.354
AGCACAAUAUAAUAGUGGATT against GPR148	inactive: 0

For reference, part of the list above.
Sequence	median seed-adjusted z-score
CGAGCAAUAAGUCCAUGGATT against ACOT7	inactive: 0.665
CACCGAGUCGGAAUACUAUTT against TGFB3	inactive: -0.354
AGCACAAUAUAAUAGUGGATT against GPR148	inactive: 0

Further records

Sequence	median seed-adjusted z-score
ACAAAGCUGCUGUGCUAUATT against BET1	inactive: 0.394
UGAGAUUUCCAAUUCCCAATT against ZNF641	inactive: 0.233
GUGUCUACAUCUAACAAGATT against ZKSCAN2	inactive: -0.0343
GGAUGAAGACUAUAGGGUATT against PHGDH	inactive: 0.108
GGAGCUCGAUCACCACUUATT against MAML3	inactive: -0.412
GGAUGCUGGAUAAUCGGAATT against UBP1	inactive: 0.847
GCCUGAACCUCAUCCUUAUTT against ENPP1	inactive: -0.273
GGACGUAAGGGACUCAAAATT against HSD17B1	inactive: -0.569
CCAUUGUCUAUGCUACGGATT against KCTD13	inactive: -0.273
CGUCUACCGAGAUCUGAAATT against GRK5	inactive: -0.377
GCACUUUCCCGCCUCUUUATT against PRSS16	inactive: -0.0226
GAGAGCAUCGUUAAAGAUATT against TRAF3	inactive: 0.731
CCUCCGUUAUGAUCGGCUATT against B4GALNT1	inactive: 0.0265
CACGGAUGAUGAACGAGAATT against GRHL2	inactive: 0.0233
GAUACGUUCUGCAAUGUUATT against EPYC	inactive: 0.00264
CGAGUGGACCUACGAGGAATT against ARID3C	active: -1.32
GCCUAGGUAUGGGAAAAGATT against PPY	inactive: -0.0804
AGCUUCUACGAGCUCAAAATT against TFE3	inactive: -0.0442
ACCACUCAGAUAUCCCAAATT against ST6GAL1	inactive: -0.14
GGCUAUCAUCUACACCCGATT against UGCG	inactive: 0.492

Five entries drawn at random from those above:
Sequence	median seed-adjusted z-score
CCAUGCACUCAAUAAAGAATT against KLK6	inactive: 0.176
GGUUAGAGUUCACACUUGATT against ICMT	inactive: -0.0602
GCUCUUGGAUUAAAAGGUATT against STAR	inactive: 0.478
GCACUUUCCCGCCUCUUUATT against PRSS16	inactive: -0.0226
GCCGAAUCCUGAAGAGACATT against QTRTD1	inactive: 0.377
